{"source": "the supplement of paper PMC8728848", "binders": {"B1": {"name": "RsaA-N-term (Caulobacter crescentus), P35828 (protein)", "chain": "MAYTTAQLVTAYTNANLGKAPDAATTLTLDAYATQTQTGGLSDAAALTNTLKLVNSTTAVAIQTYQFFTGVAPSAAGLDFLVDSTTNTNDLNDAYYSKFAQENRFINFSINLATGAGAGATAFAAAYTGVSYAQTVATAYDKIIGNAVATAAGVDVAAAVAFLSRQANIDYLTAFVRANTPFTAAADIDLAVKAALIGTILNAATVSGIGGYATATAAMINDLSDGALSTDNAAGVNLFTAYPSSGVSGSTLSLTTGTDTLTGTANNDTFVAGEVAGDGSGWSHPQFEKGG"}}, "experiment_in_all_cases": "glycan array binding signal (z-score within array); higher = stronger binding", "details_in_all_cases": "glycan notation: IUPAC condensed, linker removed", "key": {"[1]": {"molecular_target": "Neu5Ac(a2-8)Neu5Ac", "summary_of_the_method": "(§1)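 Glycan array data came from 3228 arrays in the Consortium for Functional Glycomics database, and only arrays with an available protein sequence were kept. Glycan names were put into IUPAC-condensed notation, and columns mapping to the same glycan were averaged. The binding signal is a within-array Z-score, averaged across arrays of one protein sequence run at different concentrations or buffers and across linkers. A negative Z-score can be read as non-binding.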"}, "[2]": {"molecular_target": "Neu5Ac(a2-8)Neu5Ac(a2-3)Gal(b1-3)GalNAc(b1-4)[Neu5Ac(a2-3)]Gal(b1-4)Glc", "summary_of_the_method": "as §1"}, "[3]": {"molecular_target": "Neu5Ac(a2-8)Neu5Ac(a2-3)Gal(b1-3)GalNAc(b1-4)[Neu5Ac(a2-8)Neu5Ac(a2-3)]Gal(b1-4)Glc", "summary_of_the_method": "as §1"}, "[4]": {"molecular_target": "Neu5Ac(a2-8)Neu5Ac(a2-3)Gal(b1-4)Glc", "summary_of_the_method": "as §1"}, "[5]": {"molecular_target": "Neu5Ac(a2-8)Neu5Ac(a2-3)Gal(b1-4)GlcNAc", "summary_of_the_method": "as §1"}, "[6]": {"molecular_target": "Neu5Ac(a2-8)Neu5Ac(a2-3)[Gal(b1-3)GalNAc(b1-4)]Gal(b1-4)Glc", "summary_of_the_method": "as §1"}, "[7]": {"molecular_target": "Neu5Ac(a2-8)Neu5Ac(a2-3)[GalNAc(b1-4)]Gal(b1-4)Glc", "summary_of_the_method": "as §1"}, "[8]": {"molecular_target": "Neu5Ac(a2-8)Neu5Ac(a2-8)Neu5Ac", "summary_of_the_method": "as §1"}, "[9]": {"molecular_target": "Neu5Ac(a2-8)Neu5Ac(a2-8)Neu5Ac(a2-3)Gal(b1-4)Glc", "summary_of_the_method": "as §1"}, "[10]": {"molecular_target": "Neu5Ac(a2-8)Neu5Ac(a2-8)Neu5Ac(a2-3)[Gal(b1-3)GalNAc(b1-4)]Gal(b1-4)Glc", "summary_of_the_method": "as §1"}, "[11]": {"molecular_target": "Neu5Ac(a2-8)Neu5Ac(a2-8)Neu5Ac(a2-3)[GalNAc(b1-4)]Gal(b1-4)Glc", "summary_of_the_method": "as §1"}, "[12]": {"molecular_target": "Neu5Ac(a2-8)Neu5Ac(a2-8)Neu5Ac(a2-8)Neu5Ac(a2-3)[GalNAc(b1-4)]Gal(b1-4)Glc", "summary_of_the_method": "as §1"}, "[13]": {"molecular_target": "Neu5Ac(a2-8)Neu5Gc(a2-3)Gal(b1-4)GlcNAc", "summary_of_the_method": "as §1"}, "[14]": {"molecular_target": "Neu5Ac(b2-6)Gal(b1-4)GlcNAc", "summary_of_the_method": "as §1"}, "[15]": {"molecular_target": "Neu5Ac(b2-6)GalNAc", "summary_of_the_method": "as §1"}, "[16]": {"molecular_target": "Neu5Ac9Ac(a2-3)Gal(b1-3)GlcNAc", "summary_of_the_method": "as §1"}, "[17]": {"molecular_target": "Neu5Ac9Ac(a2-3)Gal(b1-4)GlcNAc", "summary_of_the_method": "as §1"}, "[18]": {"molecular_target": "Neu5Ac9Ac(a2-6)Gal(b1-4)GlcNAc", "summary_of_the_method": "as §1"}, "[19]": {"molecular_target": "Neu5Gc(a2-3)Gal(b1-3)GlcNAc", "summary_of_the_method": "as §1"}, "[20]": {"molecular_target": "Neu5Gc(a2-3)Gal(b1-3)[Fuc(a1-4)]GlcNAc", "summary_of_the_method": "as §1"}, "[21]": {"molecular_target": "Neu5Gc(a2-3)Gal(b1-4)Glc", "summary_of_the_method": "as §1"}, "[22]": {"molecular_target": "Neu5Gc(a2-3)Gal(b1-4)GlcNAc", "summary_of_the_method": "as §1"}, "[23]": {"molecular_target": "Neu5Gc(a2-3)Gal(b1-4)GlcNAc(b1-3)Gal(b1-4)GlcNAc(b1-2)Man(a1-3)[Neu5Gc(a2-3)Gal(b1-4)GlcNAc(b1-3)Gal(b1-4)GlcNAc(b1-2)Man(a1-6)]Man(b1-4)GlcNAc(b1-4)GlcNAc", "summary_of_the_method": "as §1"}, "[24]": {"molecular_target": "Neu5Gc(a2-3)Gal(b1-4)[Fuc(a1-3)]GlcNAc", "summary_of_the_method": "as §1"}, "[25]": {"molecular_target": "Neu5Gc(a2-6)Gal(b1-4)GlcNAc", "summary_of_the_method": "as §1"}, "[26]": {"molecular_target": "Neu5Gc(a2-6)GalNAc", "summary_of_the_method": "as §1"}, "[27]": {"molecular_target": "Neu5Gc(a2-8)Neu5Ac(a2-3)Gal(b1-4)GlcNAc", "summary_of_the_method": "as §1"}, "[28]": {"molecular_target": "Neu5Gc(a2-8)Neu5Gc(a2-3)Gal(b1-4)GlcNAc", "summary_of_the_method": "as §1"}, "[29]": {"molecular_target": "Neu5Gc(a2-8)Neu5Gc(a2-3)Gal(b1-4)GlcNAc(b1-3)Gal(b1-4)GlcNAc", "summary_of_the_method": "as §1"}, "[30]": {"molecular_target": "Neu5Gc(a2-8)Neu5Gc(a2-6)Gal(b1-4)GlcNAc", "summary_of_the_method": "as §1"}, "[31]": {"molecular_target": "Neu5Gc(b2-6)Gal(b1-4)GlcNAc", "summary_of_the_method": "as §1"}}, "note": "The list shows a part of the results.", "data": [{"binder": "B1", "values": [{"measurement": "glycan array binding signal (z-score)", "setting": "[1]", "result": 0.164}, {"measurement": "glycan array binding signal (z-score)", "setting": "[2]", "result": -0.642}, {"measurement": "glycan array binding signal (z-score)", "setting": "[3]", "result": 0.122}, {"measurement": "glycan array binding signal (z-score)", "setting": "[4]", "result": -0.815}, {"measurement": "glycan array binding signal (z-score)", "setting": "[5]", "result": -0.177}, {"measurement": "glycan array binding signal (z-score)", "setting": "[6]", "result": -0.027}, {"measurement": "glycan array binding signal (z-score)", "setting": "[7]", "result": -0.001}, {"measurement": "glycan array binding signal (z-score)", "setting": "[8]", "result": -0.579}, {"measurement": "glycan array binding signal (z-score)", "setting": "[9]", "result": -0.265}, {"measurement": "glycan array binding signal (z-score)", "setting": "[10]", "result": -0.646}, {"measurement": "glycan array binding signal (z-score)", "setting": "[11]", "result": -0.2}, {"measurement": "glycan array binding signal (z-score)", "setting": "[12]", "result": 1.29}, {"measurement": "glycan array binding signal (z-score)", "setting": "[13]", "result": -0.855}, {"measurement": "glycan array binding signal (z-score)", "setting": "[14]", "result": 0.047}, {"measurement": "glycan array binding signal (z-score)", "setting": "[15]", "result": -0.15}, {"measurement": "glycan array binding signal (z-score)", "setting": "[16]", "result": 1.66}, {"measurement": "glycan array binding signal (z-score)", "setting": "[17]", "result": -0.179}, {"measurement": "glycan array binding signal (z-score)", "setting": "[18]", "result": -0.765}, {"measurement": "glycan array binding signal (z-score)", "setting": "[19]", "result": -0.512}, {"measurement": "glycan array binding signal (z-score)", "setting": "[20]", "result": 0.633}, {"measurement": "glycan array binding signal (z-score)", "setting": "[21]", "result": -0.605}, {"measurement": "glycan array binding signal (z-score)", "setting": "[22]", "result": 0.428}, {"measurement": "glycan array binding signal (z-score)", "setting": "[23]", "result": 0.548}, {"measurement": "glycan array binding signal (z-score)", "setting": "[24]", "result": 0.371}, {"measurement": "glycan array binding signal (z-score)", "setting": "[25]", "result": 0.784}, {"measurement": "glycan array binding signal (z-score)", "setting": "[26]", "result": 0.667}, {"measurement": "glycan array binding signal (z-score)", "setting": "[27]", "result": -1.31}, {"measurement": "glycan array binding signal (z-score)", "setting": "[28]", "result": 0.037}, {"measurement": "glycan array binding signal (z-score)", "setting": "[29]", "result": -0.282}, {"measurement": "glycan array binding signal (z-score)", "setting": "[30]", "result": -0.033}, {"measurement": "glycan array binding signal (z-score)", "setting": "[31]", "result": -0.368}]}]}
